Measurements taken from patent US20200375864A1, “PERIODONTAL DISEASE TREATMENT” (STRAUMANN HOLDING AG, priority 2013, published 2020).
Some results were stated once for a whole list of compounds, not compound by compound. At least one compound was matched to its structure with a doubt left.

Tested on: subgingival biofilm
Experiment: subgingival biofilm model on titanium discs, antimicrobial solutions alone, total CFU (Experiment 3)
Type: cell-based
Conditions: 24 h after 1 min exposure
Source text: Evaluation of subgingival biofilm decontamination with various antimicrobial solutions tested in a subgingival biofilm model For a detailed description of the biofilm model used in this experiment, see e.g. Guggenheim et al., 2004, 2001 a; and Shapiro et al., 2002 and Guggenheim et al., 2009. OMZ 278, Prevotella intermedia OMZ 493, Veilonella dispar OMZ 598, Fusobacterium nucleatum OMZ 607, Streptococcus oralis OMZ 661, Treponema denticola OMZ 698, Campylobacter rectus OMZ 745, Actinomyces oris OMZ 871, Streptococcus anginosus OMZ 925, Porphyromonas gingivalis OMZ 1047, Tannerella forsythia [table] The purpose of the present biofilm experiment was to assess the efficacy of various antimicrobial solutions on a subgingival microbiota associated with periodontitis and implantitis. The antimicrobial effect was evaluated immediately and 24 h after a 1 min exposure to the test solutions to biofilms grown on titanium discs.

For `[H]/N=C(\N/C(=N/[H])NCCCCCCNC(=N)NC(=N)Nc1ccc(Cl)cc1)Nc1ccc(Cl)cc1` [1% CHX, Chlorhexidine], the “suppression of the microbiota after 24 h (total CFU)” value was “less than 3 log steps”.

`[Na+].[O-]Cl` [1% NaCIO, Sodium hypochlorite] was tested, and the “suppression of the microbiota after 24 h (total CFU)” value was “less than 3 log steps”.
